Reference: patent publication US20100093980A1 (Biogen, published 2010)
Numbering of substitutions follows the chain as printed. No constants are given. Whether binding was seen depends on the method and setting. Binding calls can cover weak binding; strength is not graded here.

B1: Humanized HP1/2 Fab V24A_T32V (Fab, V domains shown)
VH: EVQLVQSGAEVKKPGATVKISCKASGFNIKDVYMHWVQQAPGKGLEWMGRIDPASGDTKYDPKFQVRVTITADTSTDTAYMELSSLRSEDTAVYYCATGMWVSTGYALDFWGQGTLVTVSS
VL: DIVMTQSPDSLAVSLGERATINCKASQSVTNDVAWYQQKPGQPPKLLIYYASNRYTGVPDRFSGSGSGTDFTLTISSLQAEDVAVYYCQQDYSSPYTFGQGTKVEIK
notes: Fab fragment; Constant parts are not specified
B2: Humanized HP1/2 Fab F27Y_T32V_M96L (VH SEQ ID NO: 25) (Fab, V domains shown)
VH: B1 VH with A24V, F27K, M100L
VL: B1 VL
notes: as for B1
B3: HP1/2 Fab, straight CDR graft (VH CDR graft paired with VL CDR graft) (Fab, V domains shown)
VH: B1 VH with A24V, V32T
VL: B1 VL
notes: as for B1
B4: Humanized HP1/2 Fab V24S_F27Y_T32V (Fab, V domains shown)
VH: B1 VH with A24S, F27Y
VL: B1 VL
notes: as for B1
B5: Humanized HP1/2 Fab V24F_T32V (Fab, V domains shown)
VH: B1 VH with A24F
VL: B1 VL
notes: as for B1

target: purified α4β1 VLA4 integrin; assay: ELISA, Fab on plate-coated purified VLA4

binding | Binder
binds | B1
binds | B2
binds | B3
binds | B4
binds | B5
